Data as given in PubChem BioAssay AID1671195 (Yale University, 2021).

Purpose: 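Knockdowns that increase or decrease uptake of fluorescent LDL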 (primary screen)
System: human Huh7 hepatoma cells
Knock-down reagent: siRNA pool against human genes, 18 nM
Time to read-out: about 2 to 2.5 days of knockdown, then 8 h LDL uptake
Treatment: DiI-labelled LDL at 30 µg/ml for 8 h, in lipoprotein-deficient serum medium
Detection: 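Fluorescent LDL signal imaged in cells, scaled to the plate median, robust z-score for each replicate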
Direction: robust z-score: higher = more LDL uptake after knockdown
Hit rule: 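Active when two or more replicates show a robust z-score above 2 or below -2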
Here is a random part of about 22,000 reagents. About 1,510 of them (6.9%) count as active. 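Active includes knockdowns raising or lowering LDL uptake; positive z-scores mean more uptake, negative mean less.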

gene | PubChem SID | robust z-score, replicate 1 | robust z-score, replicate 2 | robust z-score, replicate 3 | activity call
ABHD18 | SID442900010 | -0.557 | -0.707 | -0.833 | inactive
FOXB1 | SID442883538 | 2.22 | 2.31 | 3.63 | active
POU4F2 | SID442899502 | -0.332 | -0.932 | -0.623 | inactive
MAP3K1 | SID442884364 | -2.34 | -1.68 | -2 | active
ING1 | SID442901071 | -0.801 | -0.939 | -0.801 | inactive
ADH1C | SID442899202 | -0.131 | -0.742 | -0.898 | inactive
EFEMP1 | SID442884301 | -2.26 | -1.86 | -1.5 | active
LOC390704 (retired record) | SID442900556 | -0.876 | -0.818 | -0.632 | inactive
CAPN14 | SID442895650 | -0.345 | -0.0907 | -0.136 | inactive
BMP3 | SID442896841 | -0.258 | -1.3 | 0.602 | inactive
SLC66A2 | SID442889655 | 0.635 | 0.46 | 0.49 | inactive
PDE3B | SID442897507 | -0.719 | 0.422 | -0.884 | inactive
TXNDC5 | SID442897883 | -0.253 | -0.321 | -0.732 | inactive
MAB21L1 | SID442883813 | 2.17 | 2.23 | 2.45 | active
LOC284379 | SID442888807 | 0.498 | 0.561 | 0.914 | inactive
LOC440786 | SID442902091 | -3.13 | -0.0587 | 0.162 | inactive
HPS5 | SID442888911 | 0.224 | 1.19 | 0.507 | inactive
EPSTI1 | SID442894562 | -0.529 | 0.134 | 0.17 | inactive
HNRNPR | SID442893399 | -0.069 | -0.0798 | 0.314 | inactive
ME1 | SID442887916 | 0.62 | 1.29 | 0.542 | inactive
MSANTD4 | SID442899298 | -0.614 | -0.604 | -0.59 | inactive
DUSP8 | SID442894498 | -0.242 | -0.201 | 0.232 | inactive
TOLLIP | SID442902634 | -1.4 | -0.872 | -1.08 | inactive
AGPS | SID442888512 | 0.247 | 0.855 | 1.02 | inactive
DKK4 | SID442893912 | 0.337 | -0.51 | 0.165 | inactive
GAK | SID442903709 | -1.04 | -1.15 | -1.91 | inactive
LOC388688 (retired record) | SID442901386 | -0.0428 | -1.22 | -1.41 | inactive
SIX1 | SID442893619 | 0.811 | -0.351 | -0.374 | inactive

Active calls (from the list above):
gene | PubChem SID | robust z-score, replicate 1 | robust z-score, replicate 2 | robust z-score, replicate 3 | activity call
FOXB1 | SID442883538 | 2.22 | 2.31 | 3.63 | active
MAP3K1 | SID442884364 | -2.34 | -1.68 | -2 | active
EFEMP1 | SID442884301 | -2.26 | -1.86 | -1.5 | active
MAB21L1 | SID442883813 | 2.17 | 2.23 | 2.45 | active
